Protein sequences, listed by entry. Tags and fused reporters are not part of them.
UniProt Q42479: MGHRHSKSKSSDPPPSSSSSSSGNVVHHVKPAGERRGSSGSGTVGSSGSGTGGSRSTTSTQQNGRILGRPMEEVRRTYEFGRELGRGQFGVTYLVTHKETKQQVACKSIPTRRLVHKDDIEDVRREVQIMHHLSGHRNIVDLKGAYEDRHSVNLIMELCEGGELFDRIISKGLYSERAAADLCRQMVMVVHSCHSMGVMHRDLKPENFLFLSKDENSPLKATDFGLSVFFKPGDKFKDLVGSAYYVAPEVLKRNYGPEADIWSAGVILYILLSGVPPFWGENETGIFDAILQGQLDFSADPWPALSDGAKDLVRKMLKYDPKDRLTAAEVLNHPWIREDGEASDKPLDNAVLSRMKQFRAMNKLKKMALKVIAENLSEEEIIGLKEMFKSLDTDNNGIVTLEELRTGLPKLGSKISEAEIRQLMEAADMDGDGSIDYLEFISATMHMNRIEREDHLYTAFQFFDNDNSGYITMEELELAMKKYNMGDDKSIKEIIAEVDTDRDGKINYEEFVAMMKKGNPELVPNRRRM

According to publication PMC4558565:

T1: GST-tagged bZIP63 (Arabidopsis thaliana) (UniProt B9DGI8)
T1 sequence: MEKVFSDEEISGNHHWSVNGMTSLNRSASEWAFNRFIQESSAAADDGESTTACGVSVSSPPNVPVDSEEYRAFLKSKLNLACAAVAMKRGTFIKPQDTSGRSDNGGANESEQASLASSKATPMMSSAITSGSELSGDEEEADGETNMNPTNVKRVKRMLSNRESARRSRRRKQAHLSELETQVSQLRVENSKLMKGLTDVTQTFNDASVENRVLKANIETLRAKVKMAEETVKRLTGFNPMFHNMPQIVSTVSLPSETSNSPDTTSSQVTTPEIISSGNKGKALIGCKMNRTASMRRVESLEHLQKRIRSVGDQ


Target: T1, GST-tagged bZIP63 (Arabidopsis thaliana)
Experiment: affinity purification with mass spectrometry; GST-bZIP63 from E. coli lysate held on a GSTrap FF column; total root protein in protein extraction buffer (25 mM TrisCl, 15 mM EGTA, 10 mM MgCl2, 75 mM NaCl, 0.1% Tween20, pH 7.5) loaded; eluted with increasing salt; gel bands at the MW of the in-gel kinase signals cut, trypsin, LC-MS/MS; four independent experiments; only the target purified

Molecule | binding
CPK3, calcium dependent protein kinase (from UniProt Q42479 1-529) (enzyme) | binds
AKIN10, catalytic subunit of SnRK1 (enzyme, UniProt Q38997 1-512) MDGSGTGSRSGVESILPNYKLGRTLGIGSFGRVKIAEHALTGHKVAIKILNRRKIKNMEMEEKVRREIKILRLFMHPHIIRLYEVIETPTDIYLVMEYVNSGELFDYIVEKGRLQEDEARNFFQQIISGVEYCHRNMVVHRDLKPENLLLDSKCNVKIADFGLSNIMRDGHFLKTSCGSPNYAAPEVISGKLYAGPEVDVWSCGVILYALLCGTLPFDDENIPNLFKKIKGGIYTLPSHLSPGARDLIPRMLVVDPMKRVTIPEIRQHPWFQAHLPRYLAVPPPDTVQQAKKIDEEILQEVINMGFDRNHLIESLRNRTQNDGTVTYYLILDNRFRASSGYLGAEFQETMEGTPRMHPAESVASPVSHRLPGLMEYQGVGLRSQYPVERKWALGLQSRAHPREIMTEVLKALQDLNVCWKKIGHYNMKCRWVPNSSADGMLSNSMHDNNYFGDESSIIENEAAVKSPNVVKFEIQLYKTRDDKYLLDLQRVQGPQFLFLDLCAAFLAQLRVL | binds
AKIN11, catalytic subunit of SnRK1 (enzyme, UniProt P92958 1-512) MDHSSNRFGNNGVESILPNYKLGKTLGIGSFGKVKIAEHVVTGHKVAIKILNRRKIKNMEMEEKVRREIKILRLFMHPHIIRQYEVIETTSDIYVVMEYVKSGELFDYIVEKGRLQEDEARNFFQQIISGVEYCHRNMVVHRDLKPENLLLDSRCNIKIADFGLSNVMRDGHFLKTSCGSPNYAAPEVISGKLYAGPEVDVWSCGVILYALLCGTLPFDDENIPNLFKKIKGGIYTLPSHLSSEARDLIPRMLIVDPVKRITIPEIRQHRWFQTHLPRYLAVSPPDTVEQAKKINEEIVQEVVNMGFDRNQVLESLRNRTQNDATVTYYLLLDNRFRVPSGYLESEFQETTDSGSNPMRTPEAGASPVGHWIPAHVDHYGLGARSQVPVDRKWALGLQSHAHPREIMNEVLKALQELNVCWKKIGHYNMKCRWVPGLADGQNTMVNNQLHFRDESSIIEDDCAMTSPTVIKFELQLYKAREEKYLLDIQRVNGPQFLFLDLCAAFLTELRVI | binds
SNF4, regulatory subunit of SnRK1 (protein, UniProt Q944A6 1-487) MFGSTLDSSRGNSAASGQLLTPTRFVWPYGGRRVFLSGSFTRWTEHVPMSPLEGCPTVFQVICNLTPGYHQYKFFVDGEWRHDEHQPFVSGNGGVVNTIFITGPDMVPAGFSPETLGRSNMDVDDVFLRTADPSQEAVPRMSGVDLELSRHRISVLLSTRTAYELLPESGKVIALDVNLPVKQAFHILYEQGIPLAPLWDFGKGQFVGVLGPLDFILILRELGTHGSNLTEEELETHTIAAWKEGKAHISRQYDGSGRPYPRPLVQVGPYDNLKDVALKILQNKVAAVPVIYSSLQDGSYPQLLHLASLSGILKCICRYFRHSSSSLPILQQPICSIPLGTWVPRIGESSSKPLATLRPHASLGSALALLVQAEVSSIPVVDDNDSLIDIYSRSDITALAKDKAYAQIHLDDMTVHQALQLGQDASPPYGIFNGQRCHMCLRSDSLVKVMERLANPGVRRLVIVEAGSKRVEGIISLSDVFQFLLGL | binds
CKA1, catalytic subunit of casein kinase II (CKII) (enzyme, UniProt Q08467 37-409) PILRSSIVTPTARAVSEVSGCTTIDPDFLVEISDSNQTRAMSKARVYTEVNVIRPKDYWDYESLIVQWGEQDDYEVVRKVGRGKYSEVFEGINVNSKEKCIIKILKPVKKKKIRREIKILQNLCGGPNIVKLLDVVRDQHSKTPSLIFEYVNSTDFKVLYPTLTDYDIRYYIYELLKALDFCHSQGIMHRDVKPHNVMIDHELRKLRLIDWGLAEFYHPGKEYNVRVASRYFKGPELLVDLQDYDYSLDMWSLGCMFAGMIFRKEPFFYGHDNQDQLVKIAKVLGTDELNAYLNKYQLELDPQLEALVGRHSRKPWSKFINADNQHLVSPEAIDFLDKLLRYDHQDRLTAKEAMAHAYFAQVRAAETSRMRSQ | binds
CKA2, catalytic subunit of casein kinase II (CKII) (enzyme, UniProt Q08466 32-403) LIPPLTCVNTGTVESDVTGIRFDRCLDTDSLAKISLSTVMSKARVYTDVNVIRPKDYWDYESLNVQWGEQDDYEVVRKVGRGKYSEVFEGINMNNNEKCIIKILKPVKKKKIRREIKILQNLCGGPNIVKLLDVVRDQHSKTPSLIFEYVNSTDFKVLYPTLTDYDIRYYIYELLKALDFCHSQGIMHRDVKPHNVMIDHELRKLRLIDWGLAEFYHPGKEYNVRVASRYFKGPELLVDLQDYDYSLDMWSLGCMFAGMIFRKEPFFYGHDNQDQLVKIAKVLGTDELNAYLNKYQLELDTQLEALVGRHSRKPWSKFINADNRHLVSPEAIDYLDKLLRYDHQDRLTAKEAMAHPYFAQVRAAESSRMRTQ | binds
CKB1, regulatory subunit of casein kinase II (CKII) (protein, UniProt P40228 1-287) MYRDRGTVNSRPEVVDRKRINDALERPSPSTSRQVNGKGKGTVTAATTTANLIGKQQSNNINHRDSRSASLSKNNTVSDDESDTDSEESDVSGSDGEDTSWISWFCNLRGNEFFCEVDDDYIQDDFNLCGLSSLVPYYEYALDLILDVESSQGEMFTEEQNELIESAAEMLYGLIHARYILTSKGLAAMLDKYKNYDFGRCPRVYCCGQPCLPVGQSDLPRSSTVKIYCPKCEDIYYPRSKYQGNIDGAYFGTTFPHLFLMTYGHLKPAKATQNYVQRVFGFKLHKP | binds
Casein kinase 1-like protein 2 (CKL2) (enzyme, UniProt Q9CAI5 1-465) MEPRVGNKFRLGRKIGGGSFGEIYLGTNIQTNEEVAIKLENVKTKHPQLLYESKLYKVLQGGTGVPNVKWYGVEGDYNVLVIDLLGPSLEDLFNFCSRKLSLKTVLMLADQMINRIEFVHQKSFLHRDIKPDNFLMGLGRRANQVYVIDFGLAKKYRDSNHQHIPYRENKNLTGTARYASMNTHLGIEQSRRDDLESLGFVLMYFLKGSLPWQGLKAGNKKQKYEKISEKKVSTSIEALCRGYPSEFASYFHYCRSLRFDDKPDYAYLKRLFRDLFIREGFQFDYVFDWTILKYQQSQISTPPPRHHGPVVGPSSALPPAITSAERPSGGDEARPSGWSSGIPRRNSGQIFNSGSLAKQKAPVSSDPAISKDVVLSSSSFLRATGSSRRAAVSSSREAAVLGTDSEPSNPQIVEAGSGSNSKIPVSRNSPIVSSEINKLSSPSRATTSVMKNYEANLKGIESLHF | binds

No constants are given. Whether binding was seen depends on the method and setting. In cells and extracts the contact can be indirect. Here binding means that the protein was enriched with, or labelled near, the bait; the list need not be complete. Tags and fused reporters may be left off the sequences shown.
